In patent US20100008972A1, “Film for active ingredients dermal and transdermal administration” (LISAPHARMA S.P.A., priority 2000, published 2010):

Assay: In vivo active ingredient release by tape stripping of stratum corneum
Set-up: species or system volunteers
Details: FIG. 4
Method: The in vivo active ingredient release from the film prepared as per Example 1 was evaluated on volunteers, 24 to 26 years of age, using the tape stripping technique, proposed by the US FDA for the determination of the bioavailability/bioequivalence of topical formulations (US FDA, Topical dermatological drug products, NDAs and […] vivo bioavailability, bioequivalence, in vitro release and associated studies, CDAR, 1998). This technique is based on the removal of small portions of stratum corneum by repeated applications of the adhesive tape to the skin and successive extraction and analysis of the active ingredient contained therein. To go into details, single-layer film portions obtained as per Example 1 were applied to the volunteers' forearm moistened skin and maintained there, with or without iontophoretic applications, for a period of 30 min. After said period, they were removed and tape stripping was carried out. […] Each adhesive tape was weighed before and after application: the quantity of stratum corneum removed every time was determined. […] The eluent used was a mixture of acetonitrile (14 parts) and 0.05 M potassium phosphate (86 parts), pumped at a flow rate of 1 milliliter per minute and monitored by spectrophotometer at 216 nm. The detected amount of lidocaine was normalised in respect of the amount of stratum corneum contained in each sample of adhesive tape.

CCN(CC)CC(=O)Nc1c(C)cccc1C [lidocaine]
average distribution of lidocaine in the stratum corneum vs. distance from the dermal surface (stratum corneum deeper layers (adhesive tapes 6-10, 11-15)): non-negligible amounts also pass into the deeper layers
average distribution of lidocaine in the stratum corneum vs. distance from the dermal surface (stratum corneum upper layers (adhesive tapes 1-5)): especially present in the stratum corneum upper layers
